PubChem BioAssay AID504774 – Drosophila RNAi Screening Center | 2011

Screen: 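Fly genes whose loss alters survival after alkylation damage to DNA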 (primary screen)
System: Drosophila Kc167 cells
Reagent: long dsRNA against Drosophila genes, about 0.25 µg dsRNA per well
Timing: about 6 days: 3 days knock-down, then 3 days with or without MMS
Treatment: methyl methanesulphonate 0.004% (w/v) for 3 days after knock-down
Read-out: 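Viability in wells given MMS, read as ATP luminescence, normalised by quantiles plate by plate and averaged across replicates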
Scale: mean viability with MMS and viability with MMS: higher = more surviving cells after MMS
The screen tested about 23,000 reagents; this is an unselected part of those that have a named target and a result. 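Values are quantile-normalised luminescence on an arbitrary scale; higher means more cells surviving MMS.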 A plus sign joins genes that one reagent is predicted to hit.

gene knocked down	DRSC id	mean viability with MMS	viability with MMS, replicate 1	viability with MMS, replicate 2
ChLD3 (GeneID 35002)	DRSC02640	3.42e6	3.83e6	3.92e6
Dph3 (GeneID 41352)	DRSC14923	3.62e6	4.12e6	4.03e6
Ocrl (GeneID 31157)	DRSC18576	3.65e6	4.21e6	4.03e6
Hers (GeneID 33000)	DRSC19429	3.52e6	3.97e6	4.00e6
Hers (GeneID 33000)	DRSC19676	3.67e6	4.16e6	4.10e6
CG14770 (GeneID 31085)	DRSC17947	3.49e6	3.90e6	4.04e6
CG14292 (GeneID 42264)	DRSC14772	3.49e6	4.14e6	3.79e6
tsh (GeneID 35430)	DRSC03740	3.70e6	4.30e6	4.03e6
CG17404 (GeneID 41482)	DRSC15234	3.63e6	3.97e6	4.06e6
CG30121 (retired record) (GeneID 246468)	DRSC21481	3.63e6	4.09e6	4.12e6

Taken from above:
Result for Hers (GeneID 33000) [DRSC19429] in “viability with MMS, replicate 2”: 4.00e6
Result of Dph3 (GeneID 41352) [DRSC14923] in “mean viability with MMS”: 3.62e6
For “viability with MMS, replicate 1”, tsh (GeneID 35430) [DRSC03740] reads 4.30e6

Further records:
gene knocked down	DRSC id	mean viability with MMS	viability with MMS, replicate 1	viability with MMS, replicate 2
CG14110 (GeneID 39500)	DRSC10113	3.48e6	3.92e6	3.97e6
wit (GeneID 44096)	DRSC08741	3.65e6	4.20e6	4.09e6
JYalpha (retired record) + JYalpha	DRSC21700	3.52e6	3.97e6	4.04e6
Cnx14D (GeneID 32620)	DRSC20214	3.51e6	3.94e6	4.01e6
Pcmt (GeneID 40668)	DRSC12363	3.51e6	3.96e6	4.01e6
CG33639 (GeneID 32803)	DRSC19966	3.59e6	4.05e6	4.07e6
CG33639 (GeneID 32803)	DRSC22820	3.36e6	3.98e6	3.75e6
tomboy20 (GeneID 41285)	DRSC14913	3.48e6	3.92e6	4.01e6
Cyp6u1 (GeneID 35608)	DRSC05015	3.59e6	4.04e6	4.05e6
Ssrp (GeneID 37767)	DRSC04658	3.18e6	3.74e6	2.74e6
List (GeneID 37157)	DRSC06520	3.44e6	3.93e6	3.83e6
APC10 (GeneID 36975)	DRSC06071	3.47e6	3.93e6	3.91e6
Spn77Ba (GeneID 40234)	DRSC10693	3.60e6	4.10e6	4.06e6
kkv (GeneID 45884)	DRSC12315	3.75e6	4.33e6	4.18e6
CG1671 (GeneID 36019)	DRSC06617	3.57e6	4.06e6	4.04e6
CG33125 (GeneID 318892)	DRSC00145	3.49e6	3.99e6	3.96e6
CG3402 (GeneID 38077)	DRSC08567	3.28e6	3.74e6	3.80e6
Sk2 (GeneID 326219)	DRSC08556	3.37e6	3.83e6	3.87e6
